Laboratory results from patent US20190256599A1 (GlaxoSmithKline, published 2019).
No constants are given. Whether binding was seen depends on the method and setting. Some entries that bind do so weakly or less than the wild type. For part of these data: Tags and fused reporters may be left off the sequences shown.

Experiments:
[1] = target: T1, recombinant ICOS protein (R&D Systems) (human, UniProt Q9Y6W8 21-141, limits assumed); assay: MSD competition assay on plate-coated ICOS; blocked ligand: human ICOS ligand at 1 ug/mL
T1 construct: Bought; also called ICOS receptor
T1 sequence (looked up): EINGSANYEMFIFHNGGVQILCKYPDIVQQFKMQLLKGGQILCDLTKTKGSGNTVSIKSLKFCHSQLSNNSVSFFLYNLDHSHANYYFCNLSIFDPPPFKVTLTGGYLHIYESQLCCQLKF
Experimental: MSD plates were incubated overnight at 4° C. with 10 μg/mL recombinant ICOS protein (R&D Systems) diluted in PBS. […] Sulfo-tagged streptavidin at 10 μg/mL in Diluent 100 was used for detection of the biotinylated ligand. All incubations were at room temperature for one hour on a plate shaker unless otherwise noted. The plates were read immediately following MSD Read buffer addition on a MSD MESO Quick Plex SQ 120 and data analyzed on MSD workbench software (Meso-Scale, Rockville, Md.).

[2] = target: T2, rabbit Fc-tagged recombinant human ICOS (human, UniProt Q9Y6W8 21-140, limits assumed); assay: BIAcore target capture, legend of FIG. 9A
T2 construct: Generated in-house; also called dimeric human ICOS; Fc-fusion version of the recombinant ICOS protein
T2 sequence (looked up): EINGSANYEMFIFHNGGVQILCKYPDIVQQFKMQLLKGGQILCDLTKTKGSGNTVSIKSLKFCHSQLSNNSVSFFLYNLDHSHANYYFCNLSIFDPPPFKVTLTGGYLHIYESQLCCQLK

human ICOS on cells [3] = target: T3, human ICOS on cells (human, UniProt Q9Y6W8 21-199); assay: flow cytometry on naive and activated CD4+ and CD8+ T cells from healthy donor PBMC
T3 sequence (looked up): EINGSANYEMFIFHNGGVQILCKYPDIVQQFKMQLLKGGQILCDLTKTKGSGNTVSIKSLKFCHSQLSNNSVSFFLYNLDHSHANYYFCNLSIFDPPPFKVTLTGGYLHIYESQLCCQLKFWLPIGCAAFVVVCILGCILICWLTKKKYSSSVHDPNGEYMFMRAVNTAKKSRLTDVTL

human ICOS on cells [4] = target: T3, human ICOS on cells; assay: confocal microscopy, Alexa488-labelled H2L5 IgG4PE on primary CD4+ T cells, time after addition of the antibody
[5] = target: T2, rabbit Fc-tagged recombinant human ICOS; assay: Biacore (SPR) sensorgrams with fitted curves, dimeric human ICOS
[6] = target: T2, rabbit Fc-tagged recombinant human ICOS; assay: quantitative BIAcore target capture approach
human ICOS on cells [7] = target: T3, human ICOS on cells; assay: flow cytometry on naive and CD3/CD28 activated CD4 and CD8 T cells
human ICOS on cells [8] = target: T3, human ICOS on cells; assay: legend of FIGS. 43A-43B
human ICOS on cells [9] = target: T3, human ICOS on cells; assay: time-lapse confocal microscopy, AlexaFluor488-labelled H2L5 IgG4PE 3 µg/mL on anti-CD3 pre-stimulated human T cells in co-culture with dendritic cells
human ICOS on cells [10] = target: T3, human ICOS on cells; assay: flow cytometry on human T cells (FIG. 43A)
human ICOS on cells [11] = target: T3, human ICOS on cells; assay: confocal microscopy, AlexaFluor488-labelled H2L5 on activated primary human CD3+ T cells
[12] = target: T1, recombinant ICOS protein (R&D Systems); assay: MSD competition assay: plate-coated recombinant ICOS, H2L5 IgG4PE titrated, then 1 µg/mL human ICOS ligand (B7-H2) detected with biotinylated anti-ICOS-L and sulfo-tag streptavidin
human ICOS on cells [13] = target: T3, human ICOS on cells; assay: flow cytometry on activated human CD4+ and CD8+ T cells
human ICOS on cells [14] = target: T3, human ICOS on cells; assay: flow cytometry, H2L5 IgG4PE 20 ug/mL on CD4+ and CD8+ T cells of healthy donor PBMC, detected with anti-human IgG kappa light chain FITC
human ICOS on cells [15] = target: T3, human ICOS on cells; assay: confocal microscopy, fluorescently labelled H2L5 on primary human CD3+ T cells

Measured: binding

B1: H2L5 IgG4PE (antibody, V domains shown)
VH: QVQLVQSGAEVKKPGSSVKVSCKASGYTFTDYAMHWVRQAPGQGLEWMGLISIYSDHTNYNQKFQGRVTITADKSTSTAYMELSSLRSEDTAVYYCGRNNYGNYGWYFDVWGQGTTVTVSS
VL: EIVLTQSPATLSLSPGERATLSCSASSSVSYMHWYQQKPGQAPRLLIYDTSKLASGIPARFSGSGSGTDYTLTISSLEPEDFAVYYCFQGSGYPYTFGQGTKLEIK
notes: Humanized variant of murine clone 422.2; human IgG4 with S228P and L235E (EU numbering), called IgG4PE; also called H2L5 hIgG4PE; ICOS IgG4PE
binds: [1] | [2] | human ICOS on cells [3] | human ICOS on cells [4] | [5] | [6] | human ICOS on cells [7] | human ICOS on cells [8] | human ICOS on cells [9] | human ICOS on cells [10] | human ICOS on cells [11] | [12] | human ICOS on cells [13] | human ICOS on cells [14] | human ICOS on cells [15]
